Laboratory results: patent publication US20240254229A1 (Molecular Partners, published 2024)
These are yes or no findings as the source states them, for the method shown. Some results given as binding are weak or reduced against the parent protein; the word gives no strength.

Amino acid sequences for entries named in this document (tags omitted). Residues count along the entry.
UniProt P20138, residues 18-259: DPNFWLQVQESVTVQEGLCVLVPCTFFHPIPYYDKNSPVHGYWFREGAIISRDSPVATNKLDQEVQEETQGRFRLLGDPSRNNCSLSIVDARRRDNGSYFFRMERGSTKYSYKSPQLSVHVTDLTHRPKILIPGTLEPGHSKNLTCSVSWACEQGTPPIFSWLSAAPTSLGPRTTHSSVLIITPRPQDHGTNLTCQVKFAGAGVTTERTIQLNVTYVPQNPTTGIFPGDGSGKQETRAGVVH

What was measured:
[1] = target: Molm-13 N1 tumor cells (carrying CD123, CD33 and CD70) (human) (UniProt P20138+P26951+P32970); assay: flow cytometry on Molm-13 N1 cells, anti-DARPin rabbit antibody and Alexa Fluor 647 secondary antibody, 20 µM HSA
[2] = target: hCD33 (recombinant, construct not stated) (human) (UniProt P20138); assay: SPR trace
[3] = target: T1, hCD70 (recombinant, construct not stated) (human) (UniProt P32970); assay: SPR trace
T1 sequence (looked up): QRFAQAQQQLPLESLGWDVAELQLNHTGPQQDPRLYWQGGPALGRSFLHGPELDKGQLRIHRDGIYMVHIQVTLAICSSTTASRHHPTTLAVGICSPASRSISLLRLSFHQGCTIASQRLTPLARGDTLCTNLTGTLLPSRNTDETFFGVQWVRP

[4] = target: T2, hCD123 (recombinant, construct not stated) (human) (UniProt P26951); assay: SPR trace
T2 sequence (looked up): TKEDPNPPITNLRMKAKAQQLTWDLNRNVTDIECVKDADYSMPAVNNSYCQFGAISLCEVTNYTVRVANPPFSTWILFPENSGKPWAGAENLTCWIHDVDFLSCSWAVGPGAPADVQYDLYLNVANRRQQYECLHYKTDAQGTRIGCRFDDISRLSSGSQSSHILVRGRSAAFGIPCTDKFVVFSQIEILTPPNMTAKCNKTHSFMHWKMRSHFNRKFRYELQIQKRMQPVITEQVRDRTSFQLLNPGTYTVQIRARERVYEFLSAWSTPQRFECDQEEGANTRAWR

[5] = target: T2, hCD123 (recombinant, construct not stated) (human); assay: SPR (Sierra SPR-32, Bruker); DARPin protein #56 held on immobilized HSA, 500 nM hCD123 injected; single-injection control (A3) and sequential run (A1, after hCD70)
[6] = target: T1, hCD70 (recombinant, construct not stated) (human); assay: SPR (Sierra SPR-32, Bruker); DARPin protein #56 held on immobilized HSA, 200 nM hCD70 injected; single-injection control (A2) and sequential run (A1)
[7] = target: hCD33 (recombinant, construct not stated) (human) (UniProt P20138); assay: SPR, measured against calculated sensorgram
[8] = target: T1, hCD70 (recombinant, construct not stated) (human); assay: SPR, measured against calculated sensorgram
[9] = target: T2, hCD123 (recombinant, construct not stated) (human); assay: SPR, measured against calculated sensorgram
[10] = target: hCD33 (recombinant, construct not stated) (human) (UniProt P20138); assay: SPR, sequential injections
[11] = target: T1, hCD70 (recombinant, construct not stated) (human); assay: SPR, sequential injections
[12] = target: T2, hCD123 (recombinant, construct not stated) (human); assay: SPR, sequential injections
[13] = target: hCD33 (recombinant, construct not stated) (human) (UniProt P20138); assay: SPR (Sierra SPR-32, Bruker); DARPin protein #56 held on immobilized HSA, 150 nM hCD33 injected as the first part of the dual injection; single-injection control and sequential run (A1, after hCD70 and hCD123)

binding [1]: binds | binding [2]: binds | binding [3]: binds | binding [4]: binds | binding [5]: binds | binding [6]: binds | binding [7]: binds | binding [8]: binds | binding [9]: binds | binding [10]: binds | binding [11]: binds | binding [12]: binds | binding [13]: binds
B1: DARPin® protein #56 (designed binder)
chain: DLGKKLLEAARAGQDDEVRELLKAGADVNAKDYFSHTPLHLAARNGHLKIVEVLLKAGADVNAKDFAGKTPLHLAAADGHLEIVEVLLKAGADVNAQDIFGKTPADIAADAGHEDIAEVLQKAAGSPTPTPTTPTPTPTTPTPTPTGSDLGKKLLEAARAGQDDEVRELLKAGADVNAKDYFSHTPLHLAARNGHLKIVEVLLKAGADVNAKDFAGKTPLHLAAADGHLEIVEVLLKAGADVNAQDIFGKTPADIAADAGHEDIAEVLQKAAGSPTPTPTTPTPTPTTPTPTPTGSDLGVKLLLAAERGQLDEVRILLKAGADVNAKDIAEGYTPLHIAAYQGHLEIVEVLLKAGADVNAKDRYGKTPLHLAAIGGHLEIVEVLLKAGADVNAQDNKGSTPADLAADYGHQDIAEVLQKAAGSPTPTPTTPTPTPTTPTPTPTGSDLGKKLLEAALEGQLDEVRELLKAGADVNAKDQEGYTPLHLAAALGHLEIVEVLLKAGADVNAKDQIGRTPLHLAAYKGHLEIVEVLLKAGADVNAQDIIGQTPADLAAQRGHQDIAEVLQKAAGSPTPTPTTPTPTPTTPTPTPTGSDLGIKLLTAAYDGQLDEVRILLKAGADVNAKDLRGQTPLHYAAGLGHLEIVEVLLKAGADVNAKDLHGWTPLHLAAWSGHLEIVEVLLKAGADVNAQDVEGVTPADLAAVQGHQDIAEVLQKAAGSPTPTPTTPTPTPTTPTPTPTGSDLGQKLLEAAWAGQDDEVRELLKAGADVNAKNSRGWTPLHTAAQTGHLEIFEVLLKAGADVNAKNDKRVTPLHLAAALGHLEIVEVLLKAGADVNARDSWGTTPADLAAKYGHQDIAEVLQKAA
notes: HSA-HSA-CD33-CD123-CD70-CD3; not shown: N-terminal His-tag
